Assay results: PubChem BioAssay AID540276 (National Center for Advancing Translational Sciences (NCATS), 2011)
The campaign covered roughly 300,000 compounds. About 5,400 (1.8%) were called active. Inconclusive means that the source gave no clear call. Such entries were picked first, then a sample of the others. Calls come from the whole dose curve; tested in HEK293 cells. Potencies of inconclusive entries are doubtful fits and often do not repeat.
Potency is the fitted concentration of half-maximal effect.

Assay: qHTS for inhibitors of binding or entry into cells for Marburg Virus
Details: Marburg virus pseudotyped entry inhibition, cell reporter; series mostly up to 37.8 µM
With `COc1cc(-c2nn3c(Cc4ccccc4)nnc3s2)cc(OC)c1OC` the Potency was inconclusive: 29.1 µM [inhibitor, single point]. For `O=S(=O)(Nc1ccccc1N1CCCCC1)c1ccc(Cl)s1`, the Potency was inconclusive: 14.1 µM [inhibitor, single point]. In the case of `COCCn1c(SCC(=O)NNC(=O)c2ccccc2)nc2ccccc2c1=O`, the Potency is reported as inconclusive: 0.316 µM [activator, partial curve, poor fit]. For `NC(=O)c1c(-c2ccc(Cl)cc2Cl)csc1NC(=O)Cc1ccccc1`, the Potency was inconclusive: 1.41 µM [inhibitor, full curve]. In the case of `Cc1cc([N+](=O)[O-])nn1CCCC(=O)Nc1ccc(Cl)cc1Cl`, the Potency is reported as inconclusive: 5.62 µM [activator, single point]. With `CC(=O)N1CCN(CC(=O)Nc2ccc([N+](=O)[O-])cc2Br)CC1` the Potency was “inactive”. In the case of `Cn1c(C(=O)N2CCN(c3ncccn3)CC2)cc2c(=O)n(C)c3ccccc3c21`, the Potency is reported as “inactive”. For `O=C(NCCCN1CCOCC1)C(Sc1ccccc1)c1ccccc1` (centres undefined), the Potency was “inactive”. In the case of `CS(=O)(=O)N1CCc2cc(C(=O)Nc3ccc(O)cc3)ccc21`, the Potency is reported as inconclusive: 0.224 µM [inhibitor, single point]. With `O=C(Nc1ccccc1)C1CCCN(C(=O)c2ccc(Cl)cc2)C1` (centres undefined) the Potency was inconclusive: 35.5 µM [inhibitor, single point]. In the case of `N/C(=N\NC(=O)c1ccc(Cl)cc1)c1cnccn1`, the Potency is reported as inconclusive: 0.562 µM [activator, full curve, poor fit]. For `Cc1cccc(N/C(N)=N/c2nc(C)cc(=O)[nH]2)c1`, the Potency was “inactive”. In the case of `Cn1c(=O)c2c(nc(SCCN3CCCCC3)n2Cc2ccccc2)n(C)c1=O`, the Potency is reported as inconclusive: 10.3 µM [inhibitor, partial curve, poor fit]. In the case of `O=c1c2ccccc2cnn1-c1nc2ccccc2[nH]1`, the Potency is reported as active: 0.291 µM. With `COc1ccc(CNC(=O)CN2CCC(NC(=O)c3ccccc3C)CC2)cc1` the Potency was inconclusive: 8.91 µM [activator, single point]. In the case of `O=C(c1ccc(S(=O)(=O)c2ccc(F)cc2)c([N+](=O)[O-])c1)N1CCCCCC1`, the Potency is reported as inconclusive: 8.2 µM [inhibitor, partial curve, poor fit]. For `Cc1ccc(C)c(S(=O)(=O)N2CCN(C(=O)Cc3ccc(S(=O)(=O)N4CCOCC4)s3)CC2)c1`, the Potency was “inactive”. With `Cc1cc(O)c(CN2CCN(c3ccccc3)CC2)c2oc(=O)cc(C)c12` the Potency was “inactive”. With `CCc1nnc2sc(-c3cc(-c4ccccc4)nc4ccccc34)nn12` the Potency was inconclusive: 32.6 µM [inhibitor, partial curve, poor fit].
